Measurements from “University of Dundee, Small-Polar-MMV Screening Library” (2021), ChEMBL document CHEMBL3988442.

A: 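Whole-cell assay for inhibitors of Mycobacterium tuberculosis growth, labelled Cornell in the record; the read-out is not stated. The concentration is filed as 10 mM, unlikely as a test dose, so the dose is not known. Higher means stronger inhibition (inferred from two other growth screens of the library). Size under these conditions: about 53,000 compounds, about 900 of them at 50% or above in at least one test.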
B: 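Assay on Mycobacterium tuberculosis, filed only as a heat shock assay from Cornell; the read-out is not stated. The concentration is filed as 10 mM, unlikely as a test dose, so the dose is not known. The record gives no direction; compounds that gave an IC50 in retests scored well above the rest, so higher reads as stronger inhibition. Size under these conditions: about 69,000 compounds, about 930 of them at 50% or above in at least one test.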

The filed quantity is “Percent Effect” (%).
How 0% and 100% were set is not recorded. Most values in the screen are low, and negative values occur.
Compounds were drawn at random from those tested, without regard to their results.
A dash means the value is not listed here; it may have been measured.

| Compound | A | B |
|---|---|---|
| `CNc1cc2c(nn1)CCN(C(=O)c1ccc3c(c1)CCC3)C2` | - | 13.28% |
| `Cc1ccc(N2CCCC(N3CCN(CC(F)F)CC3)C2=O)cc1` (stereo not shown) | 0.9335% | 0.3932% |
| `O=C(Cc1ccc2c(c1)CCC2)N1CCN(c2cnccn2)CC1` | - | -14.14% |
| `CC(C)N(C)Cc1cnc2n1CCN(Cc1ccco1)C2.O=C(O)C(F)(F)F.O=C(O)C(F)(F)F` | - | -12.15% |
| `COc1cc(C)c(CN2CCC3(CC2)C(C(=O)O)CC(=O)N3C)cc1C` (stereo not shown) | -8.113% | -20.39% |
| `CCN(Cc1cccc(F)c1)c1ccc2nnnn2n1` | - | -4.912% |
| `CCc1cc(NC2CCN(Cc3ccccc3F)CC2)n2nccc2n1` | 23.22% | 17.18% |
| `COC(=O)c1ccc(S(=O)(=O)N(C)CC(N)=O)c(Cl)c1` | -54.12% | -8.887% |
| `Cc1cnn(CC2CN(CC(=O)Nc3cc(C)no3)CCO2)c1` (stereo not shown) | - | 16.72% |
| `CN(C(=O)Cn1nnnc1C(C)(C)C)c1ccccc1` | -5.466% | -1.796% |
| `Cn1cnc(C(=O)N2CC3(CCN(S(=O)(=O)c4ccccc4)C3)C2)c1` | -32.76% | -32.44% |
| `Cc1ccccc1CNC(=O)c1ccccc1-n1cc(CN)cn1` | 3.98% | -8.683% |
| `O=C(NCCc1nc(C2CC2)no1)[C@H]1CNC[C@H](C(=O)N2CCCC2)C1` | -3.828% | -3.294% |
| `N#CCCN(C(=O)CN1CCCC1C1CCCCC1)c1ccccc1` (stereo not shown) | 23.99% | -4.302% |
| `CN1CC(Oc2ccccc2)=NC(SCC(=O)c2ccccc2)=N1` | - | -0.6866% |
| `O=C(CCC(=O)N1CCNC(=O)C1c1cccc(F)c1)NC1CCCC1` (stereo not shown) | - | -102.6% |
| `Cc1c[nH]c(C2COCCN2C(=O)CCc2c(C)n[nH]c2C)n1` (stereo not shown) | 8.317% | -2.857% |
| `O=C(O)C(F)(F)F.O=C(O)C(F)(F)F.c1cnn(Cc2cnc3n2CCN(CC2CCCCC2)C3)c1` | 3.638% | 19.11% |
| `CCc1ccc(C(=O)Nc2cccc(CN3CCCC3C(N)=O)c2)cc1` (stereo not shown) | -42.87% | 6.979% |
| `Cc1csc2c(C3CCCN(C(=O)CCn4ccnc4)C3)nc(C)n12` (stereo not shown) | -21.2% | -1.589% |
| `O=C(Nc1nc2c(s1)CN(S(=O)(=O)C1CC1)CC2)c1ccsc1` | 18.94% | 16.91% |
| `Cc1cccc(C(C)C)c1NC(=O)NCCN(C(C)C)C(C)C` | 1.653% | -4.085% |
| `Cn1cccc1C(=O)NCc1cnc2n1CCN(C(=O)c1ccoc1)C2` | 29.72% | -32.91% |
| `[H][C@@]12CCCO[C@]1([H])[C@@H](OCc1cccnc1)CN2C(=O)C1=CCCC1` | -2.633% | -32.07% |
| `Brc1ccc(C2(CNCc3cc[nH]c3)CCOCC2)cc1` | -4.354% | -32.74% |
| `O=C1CO[C@H](c2ccc(NS(=O)(=O)c3ccccc3)cc2)[C@@H](CO)N1` | -11% | -33.21% |
| `O=c1oc(-c2ccc(F)cc2)nn1CN1CCSCC1` | -31.85% | -11.8% |
| `O=C(CN1CCC(c2ccccc2)CC1)NCc1cc2n(n1)CCNC2` | -6.243% | 4.193% |
| `Cc1ccc(S(=O)(=O)N2CCC(c3n[nH]cc3C(=O)N(C)C)CC2)cc1` | -2.69% | 12.11% |
| `Cc1c(C2c3nc[nH]c3CCN2CCOCc2ccccc2)cnn1C` (stereo not shown) | 12.96% | 0.4093% |
| `CC(COc1ccc(F)cc1F)NC(=O)NCCN1CCOCC1` (stereo not shown) | 5.415% | -23.84% |
| `CN(C)C1CCN(C(=O)C2SCCc3ccccc32)CC1` (stereo not shown) | 28.71% | 1.19% |
| `COc1cc(C2SCC(=O)Nc3[nH]ncc32)cc(OC)c1OC` (stereo not shown) | 15.35% | 16.06% |
| `Cc1oc(C(=O)O)cc1S(=O)(=O)Nc1ccc(Cl)c(Cl)c1` | - | -3.11% |
| `COc1ccc2c(c1)CCN(CCC(=O)NC1CCCCC1)CC2` | - | -15.03% |
| `CC(C)(Oc1ccc(F)cc1)C(=O)NCc1ccco1` | 22.85% | 24.38% |
| `COc1ccc(C2=CCN(C(=O)CN(C)Cc3ccoc3)CC2)cc1` | -33.6% | 4.131% |
| `Cc1noc(C)c1C(=O)N[C@@H]1CCC[C@@H](Oc2ccccc2)[C@@H]1O` | 50.47% | 10.41% |
| `Cc1cc(NCCS(C)(=O)=O)nc2cc3c(cc12)CCC3` | 21.34% | -8.708% |
| `CCOc1ncnc2c1CCN(S(=O)(=O)c1ccccc1)CC2` | 8.516% | -2.258% |
| `CN(Cc1ccon1)C1CCN(c2cccc(-c3cscn3)c2)CC1` | - | -6.12% |
| `COc1cc(CNC(C)c2nnc3n2CCC3)cc(OC)c1` (stereo not shown) | 2.808% | 10.16% |
| `CCN(CC1CCCO1)C(=O)Nc1ccc(F)cc1OC` (stereo not shown) | 2.654% | 0.931% |
| `Cc1nnc(NC(=O)CN2CCCC(c3ccn[nH]3)C2)s1` (stereo not shown) | -6.784% | 101.7% |
| `Cc1ccccc1CC(=O)N(C)C1CCCC1` | - | 6.687% |
| `CCN(Cc1ccco1)C(=O)Nc1cc(C(F)(F)F)c[nH]c1=O` | 39.23% | -0.9726% |
| `Cn1cc(NC(=O)N2CCC(Cc3ccccc3)CC2)ccc1=O` | - | 2.293% |
| `Cc1nc(O)cc(CN2CCC=C(CN(C)C(=O)c3ccco3)C2)n1` | 9.426% | -0.6367% |
| `N#Cc1ccc(CNC(=O)C2=NN(c3ccccc3)C(=O)CN2)cc1` | - | 26.79% |
| `CCOC(=O)CCNC(=O)c1cc(Cl)cc2cccnc12` | 1.571% | -4.775% |
| `O=C(O)C(F)(F)F.[H][C@@]12C[C@H](C(=O)NCCN(C)C)[C@@]([H])(CN(C(=O)NC3CCCC3)C1)O2` | -30.64% | -1.815% |
| `CC(=O)c1cccc(S(=O)(=O)NCCNC(=O)c2snnc2C)c1` | 5.837% | -12.51% |
| `Cc1csc(Nc2nccnc2C2CCCN2C(=O)C(C)C)n1` (stereo not shown) | - | 17.3% |
| `CCc1nnc2n1CCN(C(=O)CCc1ccc3c(c1)OCO3)C2` | 11.12% | 11.62% |
| `CS(=O)(=O)N1CCc2sc(C(=O)NCc3ccccc3)cc21` | -6.408% | -14.21% |

Repeated from the top, 4 entries:

| Compound | A | B |
|---|---|---|
| `CNc1cc2c(nn1)CCN(C(=O)c1ccc3c(c1)CCC3)C2` | - | 13.28% |
| `Cc1ccc(N2CCCC(N3CCN(CC(F)F)CC3)C2=O)cc1` (stereo not shown) | 0.9335% | 0.3932% |
| `O=C(Cc1ccc2c(c1)CCC2)N1CCN(c2cnccn2)CC1` | - | -14.14% |
| `CC(C)N(C)Cc1cnc2n1CCN(Cc1ccco1)C2.O=C(O)C(F)(F)F.O=C(O)C(F)(F)F` | - | -12.15% |